Results as given in the supplement of paper PMC6078165.
Values are relative to the signal before dosing, not to a vehicle control; the signal also falls without drug.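 Labels refer to human fibroblasts, largely primary: uterine (C12385, HUF), lung (H6013), bone (Hs27A), adrenal (HADF), skin (WS1), plus mammary HMF and breast cancer-associated Hs343T. Cancer lines are basal-like or mesenchymal-like triple-negative breast cancer. The paper counts as hits responses shifting over 3x the replicate standard deviation. The tissue of the other fibroblasts is not given here.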

Test system: Hs578T
Experiment: relative JC-1 red fluorescence (viability) vs pre-drug, coculture with fibroblast (fraction); higher = more viable cancer cells
Experimental: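 JC-1 labelled TNBC cells cocultured 1:1 (1,500 cells each) with CellTrace Violet stained primary or stromal fibroblasts in 384-well plates in FluoroBrite medium, treated with one of 42 anticancer drugs at 0.1, 1, 10 or 100 uM. JC-1 red fluorescence (mitochondrial integrity in cancer cells only) was read by plate reader every 8 h for 72 h. Values are normalised to each well's pre-drug value. The stock of one drug was tenfold lower, so its dose labels may be too high.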

Nc1ccn([C@@H]2O[C@H](CO)[C@@H](O)C2(F)F)c(=O)n1 [Gemcitabine]
relative JC-1 red fluorescence
Settings	8 h	16 h	24 h	32 h	40 h	48 h	56 h	64 h	72 h
0.1 µM	0.88681	0.759	0.698	0.66	0.591	0.551	0.534	0.503	0.509
1 µM	0.88	0.741	0.681	0.647	0.59	0.553	0.55	0.521	0.519

relative JC-1 red fluorescence
Settings	8 h	16 h	24 h	32 h	40 h	48 h	56 h	64 h	72 h
0.1 µM, coculture fibroblast: C12385	0.8296	0.6902	0.636	0.547	0.4819	0.4446	0.415	0.409	0.409
0.1 µM, coculture fibroblast: H6013	0.8941	0.79	0.749	0.728	0.689	0.682	0.669	0.668	0.646
0.1 µM, coculture fibroblast: H6019	0.791	0.666	0.646	0.5372	0.493	0.46	0.434	0.415	0.401
0.1 µM, coculture fibroblast: H6076	0.9222	0.827	0.7593	0.724	0.664	0.64	0.601	0.584	0.574
0.1 µM, coculture fibroblast: H6231	0.9089	0.8362	0.73	0.688	0.615	0.583	0.526	0.5	0.477
0.1 µM, coculture fibroblast: HADF	0.899	0.793	0.726	0.68	0.642	0.621	0.59	0.588	0.568
0.1 µM, coculture fibroblast: HCFa	0.9216	0.8433	0.794	0.763	0.7073	0.6953	0.6683	0.646	0.612
0.1 µM, coculture fibroblast: HCPF	0.927	0.821	0.763	0.722	0.653	0.624	0.588	0.549	0.519
0.1 µM, coculture fibroblast: HHSteC	0.952	0.838	0.803	0.755	0.694	0.662	0.619	0.601	0.559
0.1 µM, coculture fibroblast: HMF	0.881	0.773	0.717	0.695	0.625	0.591	0.554	0.532	0.517
0.1 µM, coculture fibroblast: HPFa	0.9173	0.818	0.732	0.673	0.615	0.575	0.541	0.526	0.486
0.1 µM, coculture fibroblast: HUF	0.87	0.761	0.669	0.559	0.48	0.434	0.393	0.381	0.371
0.1 µM, coculture fibroblast: Hs27A	0.883	0.801	0.72	0.655	0.603	0.582	0.548	0.537	0.507
0.1 µM, coculture fibroblast: Hs343T	0.953	0.821	0.759	0.731	0.654	0.623	0.567	0.541	0.529
0.1 µM, coculture fibroblast: WS1	0.809	0.67	0.607	0.504	0.444	0.427	0.396	0.3995	0.401
1 µM, coculture fibroblast: C12385	0.831	0.695	0.662	0.56	0.504	0.4799	0.4554	0.4632	0.4662
1 µM, coculture fibroblast: H6013	0.859	0.7938	0.7489	0.706	0.6509	0.6326	0.6032	0.5954	0.5767
1 µM, coculture fibroblast: H6019	0.7621	0.642	0.609	0.5	0.449	0.419	0.384	0.37	0.346
1 µM, coculture fibroblast: H6076	0.909	0.7709	0.739	0.717	0.657	0.634	0.604	0.591	0.587
1 µM, coculture fibroblast: H6231	0.923	0.842	0.742	0.704	0.628	0.587	0.5433	0.5109	0.4939
1 µM, coculture fibroblast: HADF	0.88	0.774	0.727	0.68	0.632	0.603	0.562	0.549	0.518
1 µM, coculture fibroblast: HCFa	0.864	0.818	0.764	0.707	0.649	0.626	0.589	0.5733	0.5376
1 µM, coculture fibroblast: HCPF	0.8838	0.7861	0.751	0.717	0.655	0.625	0.606	0.563	0.542
1 µM, coculture fibroblast: HHSteC	0.897	0.799	0.746	0.697	0.637	0.605	0.575	0.545	0.515
1 µM, coculture fibroblast: HMF	0.895	0.783	0.74	0.716	0.663	0.625	0.593	0.566	0.546
1 µM, coculture fibroblast: HPFa	0.929	0.817	0.748	0.69	0.639	0.604	0.559	0.54	0.504
1 µM, coculture fibroblast: HUF	0.867	0.727	0.678	0.566	0.51	0.463	0.432	0.424	0.419
1 µM, coculture fibroblast: Hs27A	0.865	0.806	0.775	0.756	0.708	0.7089	0.6792	0.683	0.651
1 µM, coculture fibroblast: Hs343T	0.904	0.765	0.7136	0.6905	0.615	0.577	0.539	0.51	0.5
1 µM, coculture fibroblast: WS1	0.7826	0.685	0.626	0.523	0.463	0.4422	0.416	0.416	0.4182
